Some of the results follow.
B1: il10ra_site1_sap_28_mot_HHH_b1_03478_af2_000000027_0001_1_18_H_._HHH_b2_07426_af2_0001_0000100001_0000001_0_0001 (protein)
chain: SSSSSDEHQELLELLLEAFRLALRGNPEEAKELLEEAHELARELGDERALRMVEDMLRALSSSSS
B2: il10ra_site1_normal_mot_HHH_b1_02997_000000220_0001_39_52_H_._HHH_b2_08164_af2_0001_0000300013_0000002_0_af2pred_dldesign_0_af2pred (protein)
chain: SSSSSSAAEKAVELLKKAAELLGEGKKEEAKKVLEEAEKLAKEAGNLNVLRNIEYLKSLLSSSSS
B3: il10ra_site1_normal_mot_HHH_b1_06837_000000150_0001_20_37_H_._HHH_b1_00819_0001_0000100006_0000003_0 (protein)
chain: SSSSDEERRRVYELLREASELLFEGNPEEAREVLKEAEELVEEANNELLRFVLEHLERIVNSSSS
B4: il10ra_site1_sap_19_mot_HHH_b1_05021_af2_000000167_0001_42_56_H_._HHH_b1_02196_0001_0000400015_0000002_0_0001 (protein)
chain: SSSSDAEEYLREVAVELLELFREGDPEKAEELLEEAREFLEEKGNRELVRMIEFQFRASEWSSSS
B5: il10ra_site1_sap_17_mot_HHH_b1_00929_000000068_0001_1_20_H_._HHH_b1_05876_0001_0000100001_0000002_0_0001 (protein)
chain: SSDESQEVYRLLREAVELIHEGDHEEAEKVLEEAEELVKELGDMVLERQIRYLQKILEEERKRSS
B6: il10ra_site1_normal_mot_HHH_b2_00984_000000042_0001_1_20_H_._HHH_b1_07305_0001_0000300025_0000001_0 (protein)
chain: SSSSSDEEELKELLEELEELVRRNDRERFLRLAQELVRLAIRLSDPEILQELWELIKKFASSSSS
B7: il10ra_site1_sap_19_mot_HHH_b1_05860_000000142_0001_1_19_H_._HHH_b1_04670_af2_0001_0000600070_0000001_0_0001_af2pred_0001 (protein)
chain: SDEEEAERILEKIKELAEEKNDEKVKIAVRFLEDLDRAAKELNDEESVKAITRAARALLELVERS
B8: il10ra_site1_sap_19_mot_HHH_b1_05357_000000034_0001_23_39_H_._HHH_b2_00301_0001_0000300008_0000001_0_0001_af2pred_0001 (protein)
chain: SSSSSSDDERAVRLLIRAARLASDPRLARAALRIAAQAAKASGNEELLEEAERLLEELRSSSSSS
B9: il10ra_site1_sap_16_mot_HHH_b2_06795_000000133_0001_42_56_H_._HHH_b1_00640_0001_0000600047_0000001_0_0001_af2pred_0001 (protein)
chain: SSSSSSEEEEEVRELLEEAKKIEDLEELSYVLTRAYALAYRLGDEELRELVEEVAIKLLGSSSSS
B10: il10ra_site1_normal_mot_HHH_b2_00033_000000036_0001_41_54_H_._HHH_b2_05176_af2_0002_0000600025_0000001_0 (protein)
chain: SSSSSEEEEELRRLEEKAEELIENGNPKEALEVLAEAVRLALKLGDEEVFQKIWELIKRLGSSSS
B11: il10ra_site1_sap_15_mot_HHH_b2_01447_af2_000000258_0001_1_20_H_._HHH_b1_00452_af2_0001_0000500025_0000001_0_0001 (protein)
chain: SSSSSDELFEEVKRAYEEARELYRNGNPEEARRLLEEILEKAEELGNWVVEFAIRHALRVLSSSS
B12: il10ra_site1_sap_26_mot_HHH_b1_02665_000000293_0001_1_18_H_._HHH_b1_05755_0001_0000600041_0000001_0_0001 (protein)
chain: SSSSTEITRRVYELAREVFELARNGNPEEAREVLEEAERLAEENNDFILRHSVEALKRLLSSSSS
B13: il10ra_site1_sap_28_mot_HHH_b1_02809_af2_000000277_0001_40_57_H_._HHH_b1_04687_af2_0001_0000400018_0000001_1_0001 (protein)
chain: SSSSDEELQEALRLSQEAFRLALRGNPEEARKVVEKAEELAEEANDERLLKQLEILLRALSSSSS
B14: il10ra_site1_normal_mot_HHH_b1_08578_af2_000000096_0001_1_20_H_._HHH_b1_07134_0001_0000100002_0000002_0_af2pred_dldesign_0_af2pred (protein)
chain: SSSSSELEEFLQRKIDGLRYLKELGDEEAFKKAYEYAKALAEKAKNEETLKALEELKKELESSSS
B15: il10ra_site1_normal_mot_HHH_b2_05813_000000266_0001_1_19_H_._HHH_b1_07748_0001_0000200010_0000002_0_af2pred_dldesign_0_af2pred (protein)
chain: SSSSDKEIWDLLVEIKKLIEANPELREELEAIAREVAELGRKKKLEEARKLLEQAKALVSKSSSS
B16: il10ra_site1_sap_25_mot_HHH_b1_05357_000000034_0001_23_39_H_._HHH_b2_07690_af2_0001_0000800032_0000001_0_0001 (protein)
chain: SSSSDELEEEAEELLEELRKITDPREFIEVAQEILQLVYRAQNPELLQELWRIVVEWARGSSSSS
B17: il10ra_site1_sap_9_mot_ems_3hM_3637_000000290_0001_1_19_H_._HHH_b1_05617_0001_0000100001_0000001_1_0001_af2pred_0001 (protein)
chain: SSSSSSDELEELIEKIEEALEEGDEELVLKLMVRLAHLANENNDEEATEFALRVAEELKSSSSSS
B18: il10ra_site1_sap_16_mot_HHH_b1_05704_af2_000000048_0001_1_18_H_._HHH_b1_04513_0001_0000400028_0000002_0_0001_af2pred_dldesign_0_af2pred (protein)
chain: SSSSDPVQAAQDYYLEALELAKEKGNKDLFDATYRALMHLAEQSKDAETLARAEELRRLASSSSS
B19: il10ra_site1_normal_mot_HHH_b1_08697_af2_000000298_0001_1_18_H_._HHH_b1_04234_0001_0000200008_0000001_1 (protein)
chain: SSSSSIEERALRFWERLLKQVLEKGDEEQARSAARALRVLAEIVGDEEAKEYVEEVEKELSSSSS
B20: il10ra_site1_normal_mot_HHH_b2_08186_000000021_0001_43_56_H_._HHH_b1_06709_af2_0001_0000300023_0000001_0 (protein)
chain: SSSSTEEEIEKLLEQLEEAIEEGDRELISELALRILRLIYELGDEELLQRLWKLLKEAAKSSSSS
B21: il10ra_site1_normal_mot_HHH_b1_05672_af2_000000246_0001_1_19_H_._HHH_b1_03268_0001_0000300041_0000002_0_af2pred_0001 (protein)
chain: SSSSSEERVVELIAEAIRFAQNGNPEEARELLEEAKEIAEELNDEELKRAIEIAERFVRNISSSS
B22: il10ra_site1_normal_mot_HHH_b2_06054_000000214_0001_39_53_H_._HHH_b1_06319_0001_0000300025_0000001_0 (protein)
chain: SSSSSEEREEVEELFEEAEELLKEGDSRRVAELIRRMAELARKGDDPEAVELVLKISHKLFSSSS
B23: il10ra_site1_sap_22_mot_HHH_b1_05326_000000242_0001_1_20_H_._HHH_b1_03085_af2_0001_0000400036_0000001_0_0001 (protein)
chain: SSSSSEEEISQLLYEALRLAINGNPEEAERVVQEALELAEELGDEELEEYARILLYFIRNSSSSS
B24: il10ra_site1_sap_10_mot_21555af6df39fbf105a98f94538c59b3_0001_af2_000000275_0001_17_30_H_._HHH_b2_01902_0001_0000400011_0000002_0_0001 (protein)
chain: SSSSSNEEAVKRMLRAAKHLDDPEYVRMALRFAEWLAKVANNPELEKLVEEVKEELEEKSSSSSS

These binders were tested against il10ra, Q13651 (assay: yeast display titration).

Apparent Kd, inactive:
B1 no binding seen
B2 no binding seen
B3 no binding seen
B4 no binding seen
B5 no binding seen
B6 no binding seen
B7 no binding seen
B8 no binding seen
B9 no binding seen
B10 no binding seen
B11 no binding seen
B12 no binding seen
B13 no binding seen
B14 no binding seen
B15 no binding seen
B16 no binding seen
B17 no binding seen
B18 no binding seen
B19 no binding seen
B20 no binding seen
B21 no binding seen
B22 no binding seen
B23 no binding seen
B24 no binding seen

Already shown: an excerpt of the list.
Apparent Kd, inactive:
B11 no binding seen
B12 no binding seen
B13 no binding seen
B14 no binding seen
B15 no binding seen
B16 no binding seen

From publication PMC10163288
